Among the data in publication PMC11730744 are binding values, retold here.

By UniProt entry, the sequences of proteins in these tests, tags left out. Residues count along the entry.
UniProt Q96D31: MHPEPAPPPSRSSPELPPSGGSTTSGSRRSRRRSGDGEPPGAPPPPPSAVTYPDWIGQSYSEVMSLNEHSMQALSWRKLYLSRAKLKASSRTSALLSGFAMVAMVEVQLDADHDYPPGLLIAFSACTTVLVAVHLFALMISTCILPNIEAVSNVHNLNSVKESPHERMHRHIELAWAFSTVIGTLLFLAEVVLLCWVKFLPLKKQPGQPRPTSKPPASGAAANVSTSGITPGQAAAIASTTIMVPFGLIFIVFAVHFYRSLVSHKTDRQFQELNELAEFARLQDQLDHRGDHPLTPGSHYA
UniProt Q9P246, residues 15-746: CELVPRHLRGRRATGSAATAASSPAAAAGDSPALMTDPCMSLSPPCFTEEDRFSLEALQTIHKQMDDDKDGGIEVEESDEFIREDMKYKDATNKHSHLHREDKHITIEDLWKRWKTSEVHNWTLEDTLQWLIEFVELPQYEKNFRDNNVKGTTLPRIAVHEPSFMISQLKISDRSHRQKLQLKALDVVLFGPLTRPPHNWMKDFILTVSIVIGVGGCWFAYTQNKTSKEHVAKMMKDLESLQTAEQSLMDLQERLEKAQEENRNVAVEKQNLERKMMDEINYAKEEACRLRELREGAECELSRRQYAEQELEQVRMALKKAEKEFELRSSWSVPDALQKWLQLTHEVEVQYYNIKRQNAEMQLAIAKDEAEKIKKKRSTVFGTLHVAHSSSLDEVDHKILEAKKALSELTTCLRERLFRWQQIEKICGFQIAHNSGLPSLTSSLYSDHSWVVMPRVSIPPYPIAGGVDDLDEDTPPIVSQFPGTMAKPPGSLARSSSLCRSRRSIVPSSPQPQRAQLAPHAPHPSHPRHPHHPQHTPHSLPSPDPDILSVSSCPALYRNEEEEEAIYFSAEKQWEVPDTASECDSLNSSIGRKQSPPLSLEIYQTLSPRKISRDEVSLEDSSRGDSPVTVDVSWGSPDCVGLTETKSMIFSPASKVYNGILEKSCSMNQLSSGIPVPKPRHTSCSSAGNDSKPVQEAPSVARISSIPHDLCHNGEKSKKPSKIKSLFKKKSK

The target in the assay is Orai1α-eGFP (UniProt Q96D31). In words: co-IP; NP-40 lysates (pH 8) of STIM1/2 DKO HEK-293 cells cotransfected with Orai1 variant-eGFP and STIM1-YFP, STIM2-YFP or both; IP with anti-Orai1 antibody and protein A-agarose overnight at 4°C; blots with anti-STIM1 and anti-STIM2; cells resting or treated with 2 µM TG for 1 min in 1.8 mM extracellular Ca2+.

Results are given in words; binding and its absence hold for the method and conditions named. Binding seen in cells or lysates may run through a third protein. Some entries that bind do so weakly or less than the wild type.

As to STIM2-YFP (from UniProt Q9P246 15-746), the binding entry is on record as “binds”.
